For data set [1], the system named is M.Csp205I/S.Csp205I type I methylase. As to the kind of experiment: activity in cells. To be noted: standard BsaI site not protected; protein in cells; protein details: co-expressed in E. coli DH10B; only the site is given.
The target in a further data set is T1, M2.BsaI (UniProt Q6SPF5).
T1 sequence (looked up, limits assumed): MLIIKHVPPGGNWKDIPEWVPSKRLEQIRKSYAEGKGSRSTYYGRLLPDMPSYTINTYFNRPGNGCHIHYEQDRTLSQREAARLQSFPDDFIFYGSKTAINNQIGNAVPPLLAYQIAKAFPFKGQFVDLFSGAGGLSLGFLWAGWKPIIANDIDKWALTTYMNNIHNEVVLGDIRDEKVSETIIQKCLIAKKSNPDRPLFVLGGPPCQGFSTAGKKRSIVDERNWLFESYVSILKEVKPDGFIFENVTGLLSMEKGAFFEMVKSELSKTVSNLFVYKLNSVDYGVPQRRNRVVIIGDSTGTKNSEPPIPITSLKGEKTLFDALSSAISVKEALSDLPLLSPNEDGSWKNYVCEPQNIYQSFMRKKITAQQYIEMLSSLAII
As to the kind of experiment: activity assay. The following applies: methylation blocks BsaI cleavage; 160 uM SAM, 37 C; purified recombinant protein; protein details: C-terminal His (pET-30b).

The test system of data set [2] is M2.Eco31I deletion of first 7 amino acids (Escherichia coli). As to the kind of experiment: activity assay. To be noted: methylation blocks BsaI cleavage; 160 uM SAM, 37 C; purified recombinant protein; protein details: C-terminal His (pET-30b).

For part of these data: Protein sequences can lack the tags named with them. For part of these data: Construct, isoform or probe ends are uncertain for at least one entry. For part of these data: Negatives hold for the conditions tested.

This is an account of results in patent US20220380784.

As to “GGTCTC (double strand) [standard BsaI site]”, the “activity on this sequence” value in data set [1] is given as “not active”; with M2.BsaI, “active”; in data set [2], “active”.
